# Results published in patent US20100273189A1, “NON SEPARATION ASSAYS WITH SELECTIVE SIGNAL INHIBITORS” (BECKMAN COULTER, INC., priority 2009, published 2010).
# System: PSA
# Assay: Heterogeneous PSA immunoassay on silica particles with Et2NOH as SSIA
# Format: biochemical
# Settings: for RLU: second column pair (head prints w/o Et2NOH, taken as with Et2NOH), average of duplicates; for S/S0: second column pair (taken as with Et2NOH)
structure (smiles),measurement,setting,value
CCN(O)CC [Et2NOH],RLU,PSA calibrator S0,6694 RLU
same,RLU,PSA calibrator S1,446120 RLU
same,S/S0,PSA calibrator S1,66.6
same,RLU,PSA calibrator S5,43144054 RLU
same,S/S0,PSA calibrator S5,6445
